# Laboratory results: patent publication US20170020890A1, “PHARMACEUTICAL COMPOSITION COMPRISING FATTY ACID DERIVATIVE” (SUCAMPO AG, priority 2015, published 2017)
# Test: Sensory test (sweetness) of sweetening agents in MCT
# Set-up: key: showing the desired sweetness (+); nor show the desired sweetness (−)
# Conditions: mixture in MCT
substance,measurement,setting,value
thaumatin,Sensory test (sweetness),Example 1,−
same,Sensory test (sweetness),Example 5,−
